Experimental data from the supplement of paper PMC8728848.
This is one part of the list.

Key:
Assay in all cases: glycan array binding signal (z-score within array); higher = stronger binding
Details in all cases: glycan notation: IUPAC condensed, linker removed
[1] = biological target: Gal(b1-4)GlcNAc(b1-2)Man(a1-6)[GlcNAc(b1-2)Man(a1-3)]Man(b1-4)GlcNAc(b1-4)GlcNAc
Method in brief: (§1)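 The Consortium for Functional Glycomics database supplied 3228 glycan arrays, of which those lacking an available protein sequence were dropped. The binding signal, a within-array Z-score, was averaged across arrays of the same protein sequence and across linkers. Negative scores can be read as non-binding.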

[2] = biological target: Gal(b1-4)GlcNAc(b1-2)Man(a1-6)[Man(a1-3)]Man(b1-4)GlcNAc(b1-4)GlcNAc
Method in brief: as §1

[3] = biological target: Gal(b1-4)GlcNAc(b1-2)[Gal(b1-4)GlcNAc(b1-4)]Man(a1-3)[Gal(b1-4)GlcNAc(b1-2)Man(a1-6)]Man(b1-4)GlcNAc(b1-4)GlcNAc
Method in brief: as §1

[4] = biological target: Gal(b1-4)GlcNAc(b1-2)[Gal(b1-4)GlcNAc(b1-4)]Man(a1-3)[Gal(b1-4)GlcNAc(b1-2)[Gal(b1-4)GlcNAc(b1-6)]Man(a1-6)]Man(b1-4)GlcNAc(b1-4)GlcNAc
Method in brief: as §1

[5] = biological target: Gal(b1-4)GlcNAc(b1-2)[Gal(b1-4)GlcNAc(b1-4)]Man(a1-3)[GlcNAc(b1-4)][Gal(b1-4)GlcNAc(b1-2)Man(a1-6)]Man(b1-4)GlcNAc(b1-4)GlcNAc
Method in brief: as §1

[6] = biological target: Gal(b1-4)GlcNAc(b1-2)[Gal(b1-4)GlcNAc(b1-4)]Man(a1-3)[GlcNAc(b1-4)][Gal(b1-4)GlcNAc(b1-2)[Gal(b1-4)GlcNAc(b1-6)]Man(a1-6)]Man(b1-4)GlcNAc(b1-4)GlcNAc
Method in brief: as §1

[7] = biological target: Gal(b1-4)GlcNAc(b1-2)[Gal(b1-4)GlcNAc(b1-6)]Man(a1-6)[Gal(b1-4)GlcNAc(b1-2)Man(a1-3)]Man(b1-4)GlcNAc(b1-4)GlcNAc
Method in brief: as §1

[8] = biological target: Gal(b1-4)GlcNAc(b1-2)[Gal(b1-4)GlcNAc(b1-6)]Man(a1-6)[Gal(b1-4)GlcNAc(b1-2)Man(a1-3)]Man(b1-4)GlcNAc(b1-4)[Fuc(a1-6)]GlcNAc
Method in brief: as §1

[9] = biological target: Gal(b1-4)GlcNAc(b1-2)[Gal(b1-4)GlcNAc(b1-6)]Man(a1-6)[GlcNAc(b1-4)][Gal(b1-4)GlcNAc(b1-2)Man(a1-3)]Man(b1-4)GlcNAc(b1-4)GlcNAc
Method in brief: as §1

[10] = biological target: Gal(b1-4)GlcNAc(b1-2)[Gal(b1-4)GlcNAc(b1-6)]Man(a1-6)[GlcNAc(b1-4)][Gal(b1-4)GlcNAc(b1-2)[Gal(b1-4)GlcNAc(b1-4)]Man(a1-3)]Man(b1-4)GlcNAc(b1-4)[Fuc(a1-6)]GlcNAc
Method in brief: as §1

[11] = biological target: Gal(b1-4)GlcNAc(b1-3)Gal(b1-3)GalNAc
Method in brief: as §1

[12] = biological target: Gal(b1-4)GlcNAc(b1-3)Gal(b1-3)GlcNAc
Method in brief: as §1

[13] = biological target: Gal(b1-4)GlcNAc(b1-3)Gal(b1-4)Glc
Method in brief: as §1

[14] = biological target: Gal(b1-4)GlcNAc(b1-3)Gal(b1-4)GlcNAc
Method in brief: as §1

[15] = biological target: Gal(b1-4)GlcNAc(b1-3)Gal(b1-4)GlcNAc(b1-2)Man(a1-3)[Gal(b1-4)GlcNAc(b1-3)Gal(b1-4)GlcNAc(b1-2)Man(a1-6)]Man(b1-4)GlcNAc(b1-4)GlcNAc
Method in brief: as §1

[16] = biological target: Gal(b1-4)GlcNAc(b1-3)Gal(b1-4)GlcNAc(b1-2)Man(a1-3)[Gal(b1-4)GlcNAc(b1-3)Gal(b1-4)GlcNAc(b1-2)Man(a1-6)]Man(b1-4)GlcNAc(b1-4)[Fuc(a1-6)]GlcNAc
Method in brief: as §1

[17] = biological target: Gal(b1-4)GlcNAc(b1-3)Gal(b1-4)GlcNAc(b1-2)[Gal(b1-4)GlcNAc(b1-3)Gal(b1-4)GlcNAc(b1-6)]Man(a1-6)[Gal(b1-4)GlcNAc(b1-3)Gal(b1-4)GlcNAc(b1-2)Man(a1-3)]Man(b1-4)GlcNAc(b1-4)GlcNAc
Method in brief: as §1

[18] = biological target: Gal(b1-4)GlcNAc(b1-3)Gal(b1-4)GlcNAc(b1-2)[Gal(b1-4)GlcNAc(b1-3)Gal(b1-4)GlcNAc(b1-6)]Man(a1-6)[Gal(b1-4)GlcNAc(b1-3)Gal(b1-4)GlcNAc(b1-2)Man(a1-3)]Man(b1-4)GlcNAc(b1-4)[Fuc(a1-6)]GlcNAc
Method in brief: as §1

[19] = biological target: Gal(b1-4)GlcNAc(b1-3)Gal(b1-4)GlcNAc(b1-3)Gal(b1-4)GlcNAc
Method in brief: as §1

[20] = biological target: Gal(b1-4)GlcNAc(b1-3)Gal(b1-4)GlcNAc(b1-3)Gal(b1-4)GlcNAc(b1-2)Man(a1-3)[Gal(b1-4)GlcNAc(b1-3)Gal(b1-4)GlcNAc(b1-3)Gal(b1-4)GlcNAc(b1-2)Man(a1-6)]Man(b1-4)GlcNAc(b1-4)GlcNAc
Method in brief: as §1

[21] = biological target: Gal(b1-4)GlcNAc(b1-3)Gal(b1-4)GlcNAc(b1-3)Gal(b1-4)GlcNAc(b1-2)Man(a1-3)[Gal(b1-4)GlcNAc(b1-3)Gal(b1-4)GlcNAc(b1-3)Gal(b1-4)GlcNAc(b1-2)Man(a1-6)]Man(b1-4)GlcNAc(b1-4)[Fuc(a1-6)]GlcNAc
Method in brief: as §1

[22] = biological target: Gal(b1-4)GlcNAc(b1-3)Gal(b1-4)GlcNAc(b1-3)Gal(b1-4)GlcNAc(b1-2)[Gal(b1-4)GlcNAc(b1-3)Gal(b1-4)GlcNAc(b1-3)Gal(b1-4)GlcNAc(b1-6)]Man(a1-6)[Gal(b1-4)GlcNAc(b1-3)Gal(b1-4)GlcNAc(b1-3)Gal(b1-4)GlcNAc(b1-2)Man(a1-3)]Man(b1-4)GlcNAc(b1-4)[Fuc(a1-6)]GlcNAc
Method in brief: as §1

B1: Drgal1 (Danio rerio) (protein)
chain: MAGVLIQNMSFKVGQTLTITGVPKPDSTNFAINIGHSPEDIALHMNPRFDAHGDQCTIVCNSFQSGSWCEEHRDDNFPFIQDKEFQIKITFTNEEFLVTLPDGSEIHFPNRQGSEKYKYMYFEGEVRIQGVEIK
glycan array binding signal (z-score) [1]: 0.241 | glycan array binding signal (z-score) [2]: 0.259 | glycan array binding signal (z-score) [3]: 0.1 | glycan array binding signal (z-score) [4]: 0.427 | glycan array binding signal (z-score) [5]: -0.015 | glycan array binding signal (z-score) [6]: 0.784 | glycan array binding signal (z-score) [7]: -0.131 | glycan array binding signal (z-score) [8]: 0.501 | glycan array binding signal (z-score) [9]: 0.922 | glycan array binding signal (z-score) [10]: 0.026 | glycan array binding signal (z-score) [11]: -0.119 | glycan array binding signal (z-score) [12]: -0.67 | glycan array binding signal (z-score) [13]: 0.641 | glycan array binding signal (z-score) [14]: -0.154 | glycan array binding signal (z-score) [15]: 0.292 | glycan array binding signal (z-score) [16]: 0.997 | glycan array binding signal (z-score) [17]: 0.864 | glycan array binding signal (z-score) [18]: 1.92 | glycan array binding signal (z-score) [19]: 0.325 | glycan array binding signal (z-score) [20]: 1.03 | glycan array binding signal (z-score) [21]: 1.4 | glycan array binding signal (z-score) [22]: 1.34
